About 7,500 (2.1%) of roughly 360,000 compounds were called active. This list was built around the results that the source calls inconclusive (neither active nor inactive); the mix of calls is not that of the screen. Calls come from the whole dose curve; as a rule, active = well fitted inhibition curve with a large enough effect; inconclusive = small, poorly fitted or top-dose-only effect, or effect the other way; inactive = flat fitted curve, though single readings scatter. Where the call is inconclusive, the potency comes from a doubtful curve fit.
Test: Nrf2 qHTS screen for inhibitors; note: nearly all actives have a fitted effect of over 60% in size
Conditions: A549 ARE-Fluc reporter, luciferase luminescence, 18-24 h; activity change, negative = inhibition: at 46 µM (top of the series)
Outline: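 A549 ARE_Fluc cells, 5000/well, 5% FBS OPTI-MEM; compounds in dose-response, 18-24 h at 37 °C/5% CO2; CellTiter-Fluor viability read (Ex 405/Em 525), then BugLite luciferase luminescence = Nrf2 activity.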
In the case of CC(=O)Oc1cc2c(cc1Cl)C(c1cccs1)CC1(CC(C)(C)NC(=S)N1)O2 (stereo not drawn), the Potency is reported as inconclusive: 14.6 µM [activator, partial curve, poor fit].
For Cc1cc(C)cc(NS(=O)(=O)c2cc3[nH]c(=O)c(=O)[nH]c3cc2C)c1, the Potency was inconclusive: 20.6 µM [activator, single point].
In the case of CCn1cc(Cl)c(C(=O)Nc2ccc3c(c2)OCCO3)n1, the Potency is reported as inconclusive: 1.84 µM [activator, partial curve, poor fit].
For CCCS(=O)(=O)NCc1cn2c(C)csc2n1, the Potency was inconclusive: 20.6 µM [activator, partial curve].
For CCCC(=O)Oc1c(Sc2ccc(C)cc2)c(C)nn1-c1ccccc1, the activity change, negative = inhibition was inactive: 9.47% [at 9.27 µM].
For O=C(CN1C(=O)/C(=C\c2ccccc2Cl)Sc2ccccc21)NCCCN1CCOCC1, the Potency was active: 20.6 µM.
With O=C(Cc1ccccc1)NNC(=O)C1CCCC1 the “activity change, negative = inhibition” value was inactive: 4.43%.
With CC(c1nccs1)N(C)C(=O)CCc1nnc(-c2ccc(-c3ccccc3)cc2)o1 (stereo not drawn) the Potency was inconclusive: 32.6 µM [falling, single point].
For Cc1[nH]c2ccccc2c1C(c1ccccn1)N1CCCC1 (stereo not drawn), the “activity change, negative = inhibition” value was inactive: 7.21%.
With O=C(Cn1cnc2c(nnn2Cc2ccc(F)cc2)c1=O)OCc1ccccc1 the Potency was inconclusive: 0.326 µM [falling, partial curve, poor fit].
In the case of CCCc1cc(=O)[nH]c(SCC(=O)Nc2sc3c(c2C#N)CCC(C)C3)n1 (stereo not drawn), the Potency is reported as inconclusive: 9.2 µM [falling, partial curve, poor fit].
In the case of COc1ccc(Cn2c(CCC(=O)Nc3ccc(Br)c(C)c3)nc3cccnc32)cc1, the Potency is reported as inconclusive: 29.1 µM [falling, single point].
With O=C(Nc1cccc(C(F)(F)F)c1)c1cc2c(=O)c3ccccc3oc2nc1C(F)(F)F the Potency was inconclusive: 8.2 µM [falling, partial curve].
In the case of CCOC(=O)c1ccc(NS(=O)(=O)c2c(N)n(C)c(=O)n(C)c2=O)cc1, the Potency is reported as inconclusive: 29.1 µM [falling, single point].
In the case of Cc1ccc(-c2cc(C(=O)NCCCN3CCOCC3)no2)cc1, the Potency is reported as inconclusive: 14.6 µM [falling, single point].
With O=c1c(Cl)c(NCCCO)cnn1-c1nc2ccccc2[nH]1 the Potency was inconclusive: 4.11 µM [activator, full curve].
In the case of S=c1[nH]nc(Cn2cnc3ccccc32)n1-c1ccccc1, the Potency is reported as inconclusive: 6.51 µM [falling, single point].
In the case of O=C(CC1(O)C(=O)N(CCc2ccccc2)c2ccccc21)c1ccco1 (stereo not drawn), the “activity change, negative = inhibition” value is reported as inactive: 2.92%.
For O=C(CN1C(=O)c2cccnc2Oc2ccc(Cl)cc21)NCCCN1CCCCC1, the “activity change, negative = inhibition” value was inactive: 11.7%.
In the case of CC(C)NC(=O)c1ccc(COc2cc(Cl)ccc2Cl)o1, the “activity change, negative = inhibition” value is reported as inactive: 21.5%.
With CC(=Nc1ccccc1)C1=C(O)C(Cc2ccccc2)NC1=O (stereo not drawn) the Potency was inconclusive: 9.2 µM [activator, partial curve].
With COc1cc2c(C(=O)N3CCN(c4cccc(Cl)c4)CC3)cn(C)c(=O)c2cc1OC the Potency was inconclusive: 1.3 µM [falling, partial curve, poor fit].
With Cc1ccc(NS(=O)(=O)c2ccc(-n3cccn3)cc2)cc1C the Potency was inconclusive: 29.1 µM [falling, single point].
For CC(C)(C)c1csc(N/N=C/c2cccnc2)n1, the Potency was inconclusive: 16.4 µM [activator, partial curve].
With CCOc1ccc(-c2cn(-c3ccc(OC)cc3)c(SC)n2)cc1 the Potency was inconclusive: 9.2 µM [activator, partial curve].
For Cn1cccc1Cc1nnc(SCC(=O)NCC2CCCO2)n1C (stereo not drawn), the Potency was inconclusive: 6.51 µM [falling, single point].
With O=C(O)c1ccccc1NS(=O)(=O)c1ccc2ccccc2c1 the Potency was inconclusive: 29.1 µM [activator, single point].
With COc1ccc(Nc2nc(N)nc(CSCCO)n2)cc1 the Potency was inconclusive: 14.6 µM [activator, partial curve, poor fit].
For O=C(N1CCOCC1)C12CC3CC(C1)CC(c1ccccc1)(C3)C2, the “activity change, negative = inhibition” value was inactive: -16.7%.
For Cc1ccc(NC(=O)c2cc(S(=O)(=O)N3CCCCC3)cs2)cc1, the Potency was active: 8.2 µM.
In the case of COc1ccc(Cl)cc1NC(=O)CN(C)C(=O)c1cc2c(s1)CCC(C)C2 (stereo not drawn), the Potency is reported as inconclusive: 16.4 µM [falling, single point].
For COc1ccc(/C=N/Nc2cc(OC)ncn2)cc1, the Potency was inconclusive: 0.92 µM [activator, full curve].
For COc1ccc(C(=O)Nn2c(SCC(=O)NCc3ccco3)nc3ccccc3c2=O)cc1, the Potency was inconclusive: 0.116 µM [activator, full curve].
With CCOc1ccc2nc3c(cc2c1)CN(CCOC)C(=NCCOC)S3 the Potency was inconclusive: 16.4 µM [falling, single point].
For COc1cc(C2C3=C(COC3=O)Oc3cc4c(cc32)OCO4)cc(OC)c1O (stereo not drawn), the “activity change, negative = inhibition” value was inactive: 14%.
In the case of COc1ccc(-c2nc3ccccc3n2Cc2ccc(C(C)C)cc2)cc1, the Potency is reported as inconclusive: 29.1 µM [falling, single point].
For COc1cc2c(cc1OC)CN(c1ccc(C(F)(F)F)cn1)CC2, the Potency was inconclusive: 9.2 µM [activator, partial curve].
For Cc1ccc(S(=O)(=O)N(C)C)cc1NC(=O)CN1CCN(Cc2ccccc2)CC1, the “activity change, negative = inhibition” value was inactive: -6.5%.
In the case of CCC(NC(=O)c1cc(COc2ccc(F)c(F)c2)on1)c1ccncc1 (stereo not drawn), the Potency is reported as inconclusive: 1.84 µM [activator, partial curve, poor fit].
With O=C(c1cc(COc2cccc(C(F)(F)F)c2)on1)N1C[C@@H]2CCC[C@H]1C2 the Potency was inconclusive: 29.1 µM [falling, single point].
With CC(C)(CNC(=O)c1cccc(S(=O)(=O)Nc2ccc(Br)cc2)c1)N1CCOCC1 the Potency was inconclusive: 16.4 µM [falling, single point].
With Cc1ccc(NC(=O)c2ccc(S(=O)(=O)N3CCC(C)CC3)cc2)nc1 the Potency was inconclusive: 18.4 µM [falling, single point].
In the case of Cc1ccc(-c2noc(CN3CCOCC3)n2)cc1, the Potency is reported as inconclusive: 9.2 µM [activator, partial curve].
For COc1cccc(CCNC(=O)c2ccc(Cn3c(SCc4ccccc4)nc4cccnc43)cc2)c1, the Potency was inconclusive: 29.1 µM [falling, single point].
With CCOc1ccc(NC(=O)NC(C)c2c(-n3cccc3)sc3c2CCN(CC)C3)cc1 (stereo not drawn) the “activity change, negative = inhibition” value was inactive: 18.1%.
With Cc1ccsc1C(=O)N(c1nc2ccccc2s1)c1c(C)cccc1C the Potency was active: 18.4 µM.
In the case of O=C(Nc1ccc2nc(SCCOc3ccccc3)sc2c1)c1ccco1, the Potency is reported as inconclusive: 10.3 µM [falling, partial curve].
For Cc1ccc(F)c([C@H]2[C@@H]3C=CCC[C@@]3(C)C(=O)N2Cc2ccccc2)c1, the Potency was inconclusive: 3.66 µM [falling, single point].
With CCC(CC)C(=O)Nc1ccc(Sc2ccc([N+](=O)[O-])cc2)cc1 the Potency was active: 3.66 µM.
For C=CCn1c(O)c(N=NC(=S)Nc2ccccc2C)c2cc(S(=O)(=O)N3CCOCC3)ccc21, the Potency was inconclusive: 23.1 µM [falling, single point].
In the case of CCCOC(=O)C1=C(C)NC(=O)NC1c1cccc2ccccc12 (stereo not drawn), the Potency is reported as inconclusive: 18.4 µM [falling, single point].
For O=C(c1ccco1)N1CCN(Cc2nc(Cc3ccccc3)no2)CC1, the Potency was inconclusive: 29.1 µM [falling, single point].
With Cc1ccc(-c2cc(-c3ccccc3)nc(N)c2C#N)o1 the Potency was inconclusive: 14.6 µM [falling, partial curve, poor fit].
In the case of c1ccc(OCCOCCN2CCOCC2)cc1, the “activity change, negative = inhibition” value is reported as inactive: 13.9%.
For CCCNC(=O)C1CCN(c2ccc(S(=O)(=O)N3CCOCC3)cc2Cl)CC1, the “activity change, negative = inhibition” value was inactive: -12.5%.
With Cc1ccc(-c2csc(NC(=O)c3ccc(-c4ccccc4)cc3)n2)o1 the Potency was active: 2.91 µM.
For Clc1cccc(N2CCN(c3ncnc4c3nc3n4CCCC3)CC2)c1, the Potency was inconclusive: 1.64 µM [activator, partial curve, poor fit].
In the case of Cc1c(CCC(=O)NCCC(=O)O)c(=O)oc2cc3occ(-c4ccccc4)c3cc12, the Potency is reported as inconclusive: 6.51 µM [falling, partial curve, poor fit].
With CCOC(=O)c1ccc(NC(=O)C2Cc3ccccc3C(=O)O2)cc1 (stereo not drawn) the “activity change, negative = inhibition” value was inactive: -15.6%.
In the case of O=C(Nc1ccc(Cl)c(Cl)c1)Oc1ccc(NC(=O)c2ccco2)cc1, the Potency is reported as inconclusive: 32.6 µM [falling, single point].
For COc1ccc(-c2cc(C(=O)Nc3ccccc3SC)no2)cc1, the Potency was inconclusive: 2.59 µM [activator, partial curve].
With Brc1ccc(CNCCCSc2nnnn2-c2ccccc2)cc1 the “activity change, negative = inhibition” value was inactive: 21%.
In the case of CC(C)CN(C(=O)COC(=O)C12CC3CC(CC(C3)C1)C2)c1c(N)n(Cc2ccccc2)c(=O)[nH]c1=O, the Potency is reported as active: 25.9 µM.
For NC(N)=Nc1nc(-c2ccccc2)c2cc(Cl)ccc2n1, the Potency was inconclusive: 3.66 µM [falling, partial curve, poor fit].
In the case of Cc1ccc(C(=O)NCCCNC(=O)c2cccnc2)cc1, the Potency is reported as inconclusive: 11.6 µM [falling, partial curve].
With C[C@]12C=CC(=O)C=C1CC[C@@H]1[C@@H]2C(=O)C[C@@]2(C)[C@H]1CC[C@]2(O)C(=O)COC(=O)CCC(=O)O the Potency was inconclusive: 1.84 µM [falling, full curve].
For O=[N+]([O-])c1ccc(N=Nc2c(O)[nH]c3ccc(F)cc23)cc1, the Potency was inconclusive: 5.8 µM [activator, full curve].
With c1cncc(CSc2ccc(-c3cccnc3)nn2)c1 the Potency was inconclusive: 29.1 µM [activator, single point].
% is set by controls: 0 for no effect and ±100 for the full control effect; potency is the fitted concentration of half-maximal effect.
